Measurements published in publication PMC8616582.
No constants are given. Whether binding was seen depends on the method and setting. In cells and extracts the contact can be indirect. Here binding means that the protein was enriched with, or labelled near, the bait; the list need not be complete. No binding means not detected with the bait.

Tests used:
[1] = target: T1, DEPS-1::TurboID (C. elegans (endogenous in adult animals)) (UniProt Q9N303); test: proximity labelling; TurboID knocked in at the bait's own locus; animals grown at 15°C to L4, then overnight at 25°C; lysate in RIPA buffer, streptavidin magnetic beads overnight at 4°C, washes with RIPA, 1 M KCl, 0.1 M Na2CO3 and 2 M urea; on-bead trypsin digestion and LC-MS/MS; enrichment against untagged N2 (fold change ≥8, p<0.05), three biological …
T1 sequence: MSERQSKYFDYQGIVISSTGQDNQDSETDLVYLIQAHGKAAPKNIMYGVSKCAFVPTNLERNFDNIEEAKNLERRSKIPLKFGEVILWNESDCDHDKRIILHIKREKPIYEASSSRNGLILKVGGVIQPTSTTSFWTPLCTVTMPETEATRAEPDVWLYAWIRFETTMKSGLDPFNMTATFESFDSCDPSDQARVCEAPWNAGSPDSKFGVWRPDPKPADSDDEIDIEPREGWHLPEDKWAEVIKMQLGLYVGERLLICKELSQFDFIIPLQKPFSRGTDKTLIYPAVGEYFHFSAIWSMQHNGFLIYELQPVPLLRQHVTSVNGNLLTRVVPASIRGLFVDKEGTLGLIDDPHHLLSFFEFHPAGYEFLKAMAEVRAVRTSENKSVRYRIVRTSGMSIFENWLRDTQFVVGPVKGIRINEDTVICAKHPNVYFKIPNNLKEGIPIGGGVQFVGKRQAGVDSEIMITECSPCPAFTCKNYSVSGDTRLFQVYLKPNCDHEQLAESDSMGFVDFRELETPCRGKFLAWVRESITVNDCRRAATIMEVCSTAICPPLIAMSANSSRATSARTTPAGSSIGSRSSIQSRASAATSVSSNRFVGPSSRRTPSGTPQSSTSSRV

[2] = target: T2, TurboID::GLH-1 (C. elegans (endogenous in adult animals)) (UniProt P34689); test: as above
T2 sequence: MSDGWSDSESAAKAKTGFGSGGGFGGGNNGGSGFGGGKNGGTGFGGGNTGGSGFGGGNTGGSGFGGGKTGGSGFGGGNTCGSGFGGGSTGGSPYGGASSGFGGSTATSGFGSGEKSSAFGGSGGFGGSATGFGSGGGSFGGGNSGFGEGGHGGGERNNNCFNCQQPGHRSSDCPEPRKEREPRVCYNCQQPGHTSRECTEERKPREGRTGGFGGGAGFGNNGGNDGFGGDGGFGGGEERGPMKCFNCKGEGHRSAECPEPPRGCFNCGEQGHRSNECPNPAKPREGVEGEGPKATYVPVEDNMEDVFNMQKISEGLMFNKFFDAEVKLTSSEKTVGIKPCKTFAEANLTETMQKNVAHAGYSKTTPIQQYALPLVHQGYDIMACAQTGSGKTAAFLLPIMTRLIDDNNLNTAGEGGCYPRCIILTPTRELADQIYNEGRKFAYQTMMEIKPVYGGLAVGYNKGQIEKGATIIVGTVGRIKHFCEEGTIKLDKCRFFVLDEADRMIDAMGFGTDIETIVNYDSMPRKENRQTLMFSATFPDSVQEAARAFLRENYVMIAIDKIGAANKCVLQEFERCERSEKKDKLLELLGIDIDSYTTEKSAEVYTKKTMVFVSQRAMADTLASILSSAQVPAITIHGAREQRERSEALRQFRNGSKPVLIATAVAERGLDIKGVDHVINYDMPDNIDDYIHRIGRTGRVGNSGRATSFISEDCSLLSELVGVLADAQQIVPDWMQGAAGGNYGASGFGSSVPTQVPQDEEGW

B1: HRDE-1/WAGO-9 (protein, UniProt Q09249 1-1032)
chain: MADLLDKIMGSSSSNRIPKRDNRMNQDKDEPTSKRSAPMFSTPKSTTPIGRDSFATMDTMNVQMNMFPVDIKDMPHKIQRFQVDVIVCSSNGKQINANLGVLAAKGDVNSHNRRLAQYYIMRTVHDKLLVKFSGKSHHFLAYDCAATLYLPEGVYTGDDQEEVTLTIDDFPKEEWKFVSKLSRRKDDSYLVVLKPAGFVYTQGEVAQEEANRMELTRIIEIVTSQKLNNEDYLQFGNATFPRLSPPHSEPDAISEIRSGFAKVSRLSQNGGGKAFMTVDTKISPFYKDTSVIKFSSNKLSEMKGGGGGRGGYGRSDSRDSRGGYRGGRSDSRDFRGVYGNRGGNDRYRDESRGRRDMYDSRRDSGSSNGADYSPSDAAELEHAFGERGNTKRCIEEALKGLDVECTHLKGNLIRVSSIAENNAENTSFMMKDDKGEREVTVAEYFLLQYNIKLKYPRLPLVVSKRFKHESFFPMELLRIAPGQRIKVNKMSPTVQSAMTGRNASMPQHHVKLVQDILRDNLKLEQNKYMDAFGIKLMSTEPIQMTAKLLPPAQIKFKGQTYMPDMSRPAFRTQDKFVEPARIRKIGIVVFDNCIQMRQAEDFCDKLSNFCRDNGITVEKDSRDWSIRELNSSDSVAIQNLMKKWLDDRVDILVGIAREKKPDVHDILKYFEESIGLQTIQLCQQTVDKMMGGQGGRQTIDNVMRKFNLKCGGTNFFVEIPNAVRGKAVCSNNETLRKKLLEHVQFIGFEISHGASRTLFDRSRSQMDGEPSVVGVSYSLTNSTQLGGFTYLQTQKEYKLQKLDEFFPKCVRSYKEHSKTLPTRIVIYRVGAGEGNFNRVKEEVEEMRRTFDKIQPGYRPHLVVIIAQRASHARVFPSCISGNRATDQNIPSGTCVENVLTSYGYDEFILSSQTPLIGTVRPCKYTILVNDAKWSKNELMHLTYFRAFGHQVSYQPPSVPDVLYAAENLAKRGRNNYKIHQRYVNLQAVENRIIKDHSELINEDMREELAAAIVDEMSVAMNGMTIPKRNFWA
- binding [1]: no binding
- binding [2]: no binding
